This is an account of results in publication doi:10.1101/2021.11.24.469949.

Chains of the proteins cited; added tags and fusions are not shown.
UniProt Q94K07: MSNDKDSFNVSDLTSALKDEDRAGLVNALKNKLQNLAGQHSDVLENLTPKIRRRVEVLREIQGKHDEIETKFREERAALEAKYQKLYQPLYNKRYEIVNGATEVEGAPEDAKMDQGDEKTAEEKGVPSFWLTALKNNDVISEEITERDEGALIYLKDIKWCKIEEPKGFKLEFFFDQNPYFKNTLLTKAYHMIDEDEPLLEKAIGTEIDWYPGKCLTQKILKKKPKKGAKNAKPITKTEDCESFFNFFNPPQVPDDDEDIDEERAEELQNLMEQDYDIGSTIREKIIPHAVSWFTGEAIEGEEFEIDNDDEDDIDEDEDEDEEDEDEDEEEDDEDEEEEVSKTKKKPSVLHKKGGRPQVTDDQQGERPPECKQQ

These are yes or no findings as the source states them, for the method shown. In cells and extracts the contact can be indirect. Here binding means that the protein was enriched with, or labelled near, the bait; the list need not be complete. Tags and fused reporters may be left off the sequences shown.

The test concerns the target T1, ZPR2-tdTomato-3xFLAG (Arabidopsis) (UniProt Q9LZX5).
T1 sequence: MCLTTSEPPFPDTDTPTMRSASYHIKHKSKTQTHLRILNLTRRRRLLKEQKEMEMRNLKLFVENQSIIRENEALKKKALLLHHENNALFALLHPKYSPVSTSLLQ
The test is described as follows: affinity purification with mass spectrometry.

For “NAP1;3 (AT5G56950.1) (from UniProt Q94K07 1-374)”, the binding result is recorded as “binds”.
